Reference: the supplement of paper PMC10849652
Some of the results follow.

The chains behind the UniProt entries cited, without tags or fusion partners. Where a name states a change or a piece, a line headed by the entry shows the natural chain unless it says otherwise.
UniProt P20700: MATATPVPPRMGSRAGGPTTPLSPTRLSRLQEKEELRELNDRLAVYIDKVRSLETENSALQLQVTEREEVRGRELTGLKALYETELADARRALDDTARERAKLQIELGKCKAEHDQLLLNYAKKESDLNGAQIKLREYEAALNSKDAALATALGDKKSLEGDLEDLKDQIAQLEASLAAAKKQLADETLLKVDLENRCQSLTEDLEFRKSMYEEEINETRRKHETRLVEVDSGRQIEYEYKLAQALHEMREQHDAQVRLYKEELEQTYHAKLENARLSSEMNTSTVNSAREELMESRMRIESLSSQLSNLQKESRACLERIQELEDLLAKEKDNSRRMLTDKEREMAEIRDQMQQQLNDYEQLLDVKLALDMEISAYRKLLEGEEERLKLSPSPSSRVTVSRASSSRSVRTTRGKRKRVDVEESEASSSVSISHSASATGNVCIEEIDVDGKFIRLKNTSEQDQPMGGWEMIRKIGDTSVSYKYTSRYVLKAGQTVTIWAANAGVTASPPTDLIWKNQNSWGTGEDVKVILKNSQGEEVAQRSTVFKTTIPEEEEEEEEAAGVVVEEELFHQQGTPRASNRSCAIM
UniProt Q9C0E8: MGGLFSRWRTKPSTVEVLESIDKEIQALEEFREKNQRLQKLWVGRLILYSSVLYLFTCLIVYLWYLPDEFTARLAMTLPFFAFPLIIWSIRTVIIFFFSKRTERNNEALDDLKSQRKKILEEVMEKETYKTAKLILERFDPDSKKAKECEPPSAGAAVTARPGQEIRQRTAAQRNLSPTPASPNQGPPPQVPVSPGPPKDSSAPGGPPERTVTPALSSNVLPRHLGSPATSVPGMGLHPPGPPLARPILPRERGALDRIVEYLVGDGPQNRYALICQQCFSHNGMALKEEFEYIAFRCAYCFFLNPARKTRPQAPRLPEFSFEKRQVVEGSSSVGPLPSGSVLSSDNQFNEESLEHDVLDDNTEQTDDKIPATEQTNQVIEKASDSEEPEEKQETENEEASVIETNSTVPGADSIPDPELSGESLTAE
UniProt O43766: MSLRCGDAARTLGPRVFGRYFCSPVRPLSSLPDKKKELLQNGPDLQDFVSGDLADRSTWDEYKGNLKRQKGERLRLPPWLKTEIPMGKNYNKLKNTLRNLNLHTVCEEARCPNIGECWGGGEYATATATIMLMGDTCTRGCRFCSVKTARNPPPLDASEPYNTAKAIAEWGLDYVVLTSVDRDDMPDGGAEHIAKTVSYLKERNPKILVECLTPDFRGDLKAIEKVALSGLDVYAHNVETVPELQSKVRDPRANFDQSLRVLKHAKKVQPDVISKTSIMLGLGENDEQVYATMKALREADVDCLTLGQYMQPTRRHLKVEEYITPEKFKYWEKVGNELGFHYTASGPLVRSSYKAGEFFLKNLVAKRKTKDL
UniProt O95214: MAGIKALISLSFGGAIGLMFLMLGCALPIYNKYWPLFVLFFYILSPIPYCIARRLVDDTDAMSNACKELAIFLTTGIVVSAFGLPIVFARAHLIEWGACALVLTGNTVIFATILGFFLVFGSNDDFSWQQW
UniProt Q7L5N7: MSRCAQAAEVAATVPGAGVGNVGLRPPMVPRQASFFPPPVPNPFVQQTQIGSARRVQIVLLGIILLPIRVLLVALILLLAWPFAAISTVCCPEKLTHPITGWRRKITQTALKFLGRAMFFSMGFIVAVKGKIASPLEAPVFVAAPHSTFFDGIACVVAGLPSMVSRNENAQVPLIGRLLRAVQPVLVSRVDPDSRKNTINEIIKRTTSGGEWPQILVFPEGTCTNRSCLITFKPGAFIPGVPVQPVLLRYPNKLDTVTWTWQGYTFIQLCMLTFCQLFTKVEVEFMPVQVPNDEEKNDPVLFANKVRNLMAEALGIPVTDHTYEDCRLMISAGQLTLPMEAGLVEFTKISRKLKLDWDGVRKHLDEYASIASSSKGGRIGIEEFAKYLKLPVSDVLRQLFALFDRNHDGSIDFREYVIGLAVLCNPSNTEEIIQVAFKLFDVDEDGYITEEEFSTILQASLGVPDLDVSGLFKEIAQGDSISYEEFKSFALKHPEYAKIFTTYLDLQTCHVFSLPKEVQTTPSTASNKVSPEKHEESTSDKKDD
UniProt Q14739: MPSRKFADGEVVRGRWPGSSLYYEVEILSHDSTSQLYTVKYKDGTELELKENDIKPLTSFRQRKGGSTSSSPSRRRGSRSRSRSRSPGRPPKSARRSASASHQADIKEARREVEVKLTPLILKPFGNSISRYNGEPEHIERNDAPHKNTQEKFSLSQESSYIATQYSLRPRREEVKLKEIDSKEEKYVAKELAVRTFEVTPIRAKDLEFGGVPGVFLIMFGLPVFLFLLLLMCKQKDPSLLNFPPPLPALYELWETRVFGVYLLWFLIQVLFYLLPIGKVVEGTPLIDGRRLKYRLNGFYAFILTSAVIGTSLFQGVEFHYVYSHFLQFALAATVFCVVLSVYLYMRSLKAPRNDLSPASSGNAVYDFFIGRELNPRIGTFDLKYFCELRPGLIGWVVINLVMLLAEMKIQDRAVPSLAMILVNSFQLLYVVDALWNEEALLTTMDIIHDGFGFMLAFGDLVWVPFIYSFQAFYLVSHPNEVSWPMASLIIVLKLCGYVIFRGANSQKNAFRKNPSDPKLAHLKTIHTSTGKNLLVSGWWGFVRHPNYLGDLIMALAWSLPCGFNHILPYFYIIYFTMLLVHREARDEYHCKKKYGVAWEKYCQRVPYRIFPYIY
UniProt P13473: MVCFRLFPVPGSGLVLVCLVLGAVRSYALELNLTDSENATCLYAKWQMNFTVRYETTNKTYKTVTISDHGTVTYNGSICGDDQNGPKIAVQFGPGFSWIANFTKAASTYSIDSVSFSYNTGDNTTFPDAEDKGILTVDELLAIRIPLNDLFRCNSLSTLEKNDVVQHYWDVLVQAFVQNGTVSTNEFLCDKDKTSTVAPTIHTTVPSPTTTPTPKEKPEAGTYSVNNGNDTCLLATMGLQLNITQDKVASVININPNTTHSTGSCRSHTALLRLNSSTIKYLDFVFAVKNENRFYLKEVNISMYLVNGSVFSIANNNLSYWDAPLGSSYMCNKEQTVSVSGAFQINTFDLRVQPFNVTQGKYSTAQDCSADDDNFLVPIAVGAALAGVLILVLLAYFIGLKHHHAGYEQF
UniProt Q92615, whole entry, looked up: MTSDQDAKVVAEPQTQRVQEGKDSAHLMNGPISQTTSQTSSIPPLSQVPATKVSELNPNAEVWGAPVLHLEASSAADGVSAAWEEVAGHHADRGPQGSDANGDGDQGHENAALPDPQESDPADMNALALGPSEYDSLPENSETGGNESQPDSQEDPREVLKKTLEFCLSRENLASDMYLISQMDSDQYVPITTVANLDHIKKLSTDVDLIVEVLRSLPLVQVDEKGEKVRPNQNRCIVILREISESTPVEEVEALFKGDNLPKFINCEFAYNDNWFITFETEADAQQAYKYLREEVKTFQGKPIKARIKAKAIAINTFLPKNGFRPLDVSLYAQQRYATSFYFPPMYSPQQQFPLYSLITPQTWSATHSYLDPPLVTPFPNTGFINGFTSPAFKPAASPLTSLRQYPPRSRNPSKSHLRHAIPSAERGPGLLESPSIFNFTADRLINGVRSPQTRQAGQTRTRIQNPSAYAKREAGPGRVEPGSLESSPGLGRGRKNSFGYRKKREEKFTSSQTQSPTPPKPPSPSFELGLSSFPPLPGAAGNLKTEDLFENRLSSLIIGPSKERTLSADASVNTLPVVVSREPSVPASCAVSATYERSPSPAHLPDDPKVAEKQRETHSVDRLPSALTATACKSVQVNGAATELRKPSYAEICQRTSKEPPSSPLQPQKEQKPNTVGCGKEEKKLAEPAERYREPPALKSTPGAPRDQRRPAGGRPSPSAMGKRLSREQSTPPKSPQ
UniProt Q9UIQ6, whole entry, looked up: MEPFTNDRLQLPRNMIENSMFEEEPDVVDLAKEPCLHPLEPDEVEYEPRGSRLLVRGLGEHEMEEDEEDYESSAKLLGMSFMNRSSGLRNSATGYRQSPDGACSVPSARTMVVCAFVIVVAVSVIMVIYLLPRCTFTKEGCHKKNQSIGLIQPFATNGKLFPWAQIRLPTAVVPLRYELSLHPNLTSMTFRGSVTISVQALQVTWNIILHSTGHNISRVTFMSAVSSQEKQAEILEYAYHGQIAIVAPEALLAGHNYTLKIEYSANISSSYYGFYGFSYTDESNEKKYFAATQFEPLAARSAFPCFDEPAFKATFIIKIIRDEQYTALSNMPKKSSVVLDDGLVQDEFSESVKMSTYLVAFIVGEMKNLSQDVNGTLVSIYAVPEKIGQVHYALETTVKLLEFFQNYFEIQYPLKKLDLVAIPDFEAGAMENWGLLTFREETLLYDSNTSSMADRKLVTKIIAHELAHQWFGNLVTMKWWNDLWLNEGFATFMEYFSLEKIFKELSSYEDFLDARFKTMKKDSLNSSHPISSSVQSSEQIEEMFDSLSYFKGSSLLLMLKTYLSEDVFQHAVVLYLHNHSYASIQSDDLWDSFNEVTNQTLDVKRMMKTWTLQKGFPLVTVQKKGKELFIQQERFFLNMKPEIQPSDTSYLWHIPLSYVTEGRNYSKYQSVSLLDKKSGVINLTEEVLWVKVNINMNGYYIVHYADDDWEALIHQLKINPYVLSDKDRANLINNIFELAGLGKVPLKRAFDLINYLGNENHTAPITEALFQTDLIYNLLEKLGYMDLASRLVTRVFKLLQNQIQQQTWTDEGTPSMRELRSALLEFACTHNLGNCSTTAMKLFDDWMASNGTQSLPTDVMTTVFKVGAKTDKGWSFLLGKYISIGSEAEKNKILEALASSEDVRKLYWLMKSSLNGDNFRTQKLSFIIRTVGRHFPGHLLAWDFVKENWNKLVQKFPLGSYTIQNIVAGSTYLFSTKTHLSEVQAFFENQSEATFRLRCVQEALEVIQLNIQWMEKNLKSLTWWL
UniProt Q6P1A2: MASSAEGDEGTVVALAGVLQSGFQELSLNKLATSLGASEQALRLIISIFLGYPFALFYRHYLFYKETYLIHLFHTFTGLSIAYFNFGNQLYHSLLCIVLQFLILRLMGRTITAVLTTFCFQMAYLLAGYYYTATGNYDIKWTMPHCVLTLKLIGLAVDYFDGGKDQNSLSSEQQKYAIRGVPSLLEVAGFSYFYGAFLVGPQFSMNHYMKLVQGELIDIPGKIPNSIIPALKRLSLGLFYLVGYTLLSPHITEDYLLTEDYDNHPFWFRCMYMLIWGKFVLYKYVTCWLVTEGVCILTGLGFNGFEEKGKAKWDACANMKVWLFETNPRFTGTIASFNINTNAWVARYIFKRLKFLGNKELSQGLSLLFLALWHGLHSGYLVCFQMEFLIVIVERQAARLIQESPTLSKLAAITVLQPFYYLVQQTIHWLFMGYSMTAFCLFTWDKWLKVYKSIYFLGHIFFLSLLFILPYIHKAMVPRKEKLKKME
UniProt Q96FQ7: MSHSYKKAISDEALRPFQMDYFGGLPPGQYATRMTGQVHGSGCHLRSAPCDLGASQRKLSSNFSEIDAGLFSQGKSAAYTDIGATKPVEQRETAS
UniProt Q7Z4F1: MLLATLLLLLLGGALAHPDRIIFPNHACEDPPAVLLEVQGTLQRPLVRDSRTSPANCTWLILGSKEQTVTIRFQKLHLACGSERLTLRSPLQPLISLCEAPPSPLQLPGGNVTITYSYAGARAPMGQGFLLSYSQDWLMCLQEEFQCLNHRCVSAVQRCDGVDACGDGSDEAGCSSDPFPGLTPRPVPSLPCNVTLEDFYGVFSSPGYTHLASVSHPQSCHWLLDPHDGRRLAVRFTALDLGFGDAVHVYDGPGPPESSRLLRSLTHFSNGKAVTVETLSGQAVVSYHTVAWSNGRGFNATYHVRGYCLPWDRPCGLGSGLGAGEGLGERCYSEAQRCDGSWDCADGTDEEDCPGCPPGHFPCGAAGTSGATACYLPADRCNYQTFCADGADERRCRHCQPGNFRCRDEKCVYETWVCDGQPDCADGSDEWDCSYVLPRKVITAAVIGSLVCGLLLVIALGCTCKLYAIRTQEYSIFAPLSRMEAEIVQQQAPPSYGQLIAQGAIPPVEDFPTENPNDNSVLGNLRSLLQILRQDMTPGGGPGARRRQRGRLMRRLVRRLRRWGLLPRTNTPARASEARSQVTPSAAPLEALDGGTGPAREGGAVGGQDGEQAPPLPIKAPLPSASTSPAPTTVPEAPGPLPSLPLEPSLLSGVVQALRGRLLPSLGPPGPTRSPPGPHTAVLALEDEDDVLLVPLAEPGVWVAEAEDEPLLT

Assays:
Test in all cases: log2 fold change, soluble protein after heating vs DMSO (PISA); higher = thermal stabilisation; K562 cells, 10 uM, 30 min; active = over 0.2 and 3.5 SD of the protein, either way, in both replicates (recomputed)
[1] = compound: CC[C@@H]1C(=O)N(C)c2cnc(Nc3ccc(C(=O)NC4CCN(C)CC4)cc3OC)nc2N1C1CCCC1
In short: (§1)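 Aliquots of K562 cells (2×10^6 cells/mL) treated with 10 μM compound for 30 min were heated for 3 min over 48°C-58°C. After pooling and extraction in PBS with 0.5% NP-40 at 4°C, soluble protein from a 21,000xg, 90 min spin was quantified by TMTpro 16plex LC-MS/MS with channel sums equalised. Thermal stability is expressed against control samples, from duplicates, as a log2 fold change.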

volasertib = compound: CC[C@@H]1C(=O)N(C)c2cnc(Nc3ccc(C(=O)N[C@H]4CC[C@H](N5CCN(CC6CC6)CC5)CC4)cc3OC)nc2N1C(C)C [volasertib]
In short: as §1

[2] = compound: CC[C@H](C)N1C=C(C2=C(C=C(C=C21)C3=CN=C(C=C3)N4CCNCC4)C(=O)NCC5=C(C=C(NC5=O)C)C)C
In short: as §1

epoxomicin = compound: CC[C@H](C)[C@@H](C(=O)N[C@@H]([C@@H](C)O)C(=O)N[C@@H](CC(C)C)C(=O)[C@]1(CO1)C)NC(=O)[C@H]([C@@H](C)CC)N(C)C(=O)C [epoxomicin]
In short: as §1

[3] = compound: CCn1cc(-c2ccnc3[nH]c(-c4cccc(CN(C)C)c4)cc23)c(-c2ccc(NC(=O)N(C)C)cc2)n1
In short: as §1

[4] = compound: CN(C)CC(=O)Nc1ccc2[nH]c(=O)c3ccccc3c2c1
In short: as §1

[5] = compound: CN1C2=C(C3=C1C(=O)N(N=C3)CC4=CC(=CC=C4)N)SC(=C2)S(=O)C
In short: as §1

[6] = compound: CN1CCC(CNc2ccc3ncc(-c4cccc(OC(F)(F)F)c4)n3n2)CC1
In short: as §1

saracatinib = compound: CN1CCN(CCOc2cc(OC3CCOCC3)c3c(Nc4c(Cl)ccc5c4OCO5)ncnc3c2)CC1 [saracatinib]
In short: as §1

sotrastaurin = compound: CN1CCN(c2nc(C3=C(c4c[nH]c5ccccc45)C(=O)NC3=O)c3ccccc3n2)CC1 [sotrastaurin]
In short: as §1

Tubastatin A = compound: CN1CCc2c(c3ccccc3n2Cc2ccc(C(=O)NO)cc2)C1 [Tubastatin A]
In short: as §1

[7] = compound: CNC(=O)C1=CC=CC=C1NC2=NC(=NC=C2Cl)NC3=C(C=C(C=C3)N4CCOCC4)OC
In short: as §1

defactinib = compound: CNC(=O)c1ccc(Nc2ncc(C(F)(F)F)c(NCc3nccnc3N(C)S(C)(=O)=O)n2)cc1 [defactinib]
In short: as §1

rucaparib = compound: CNCc1ccc(-c2[nH]c3cc(F)cc4c3c2CCNC4=O)cc1 [rucaparib]
In short: as §1

[8] = compound: CNc1nc(-c2ccc3c(N)n[nH]c3c2)cc(N2C[C@@H](C(=O)NC3CCCCC3)CC[C@H]2C)n1
In short: as §1

encorafenib = compound: COC(=O)N[C@@H](C)CNc1nccc(-c2cn(C(C)C)nc2-c2cc(Cl)cc(NS(C)(=O)=O)c2F)n1 [encorafenib]
In short: as §1

[9] = compound: COC(=O)[C@H](CCSC)NC(=O)C1=C(C=C(C=C1)NC[C@H](CS)N)C2=CC=CC=C2
In short: as §1

rosiglitazone = compound: CN(CCOC1=CC=C(C=C1)C[C@H]2C(=O)NC(=O)S2)C3=CC=CC=N3 (racemic) [rosiglitazone]
In short: as §1

alvocidib = compound: CN1CC[C@H](c2c(O)cc(O)c3c(=O)cc(-c4ccccc4Cl)oc23)[C@H](O)C1 [alvocidib]
In short: as §1

[10] = compound: CCn1c(C(=O)N(C2CC2)C2CC2)cc2c3c(ncn3C)c(Nc3cc(C)n(C)n3)nc21
In short: as §1

Target	log2 fold change [1]	log2 fold change (volasertib)	log2 fold change [2]	log2 fold change (epoxomicin)	log2 fold change [3]	log2 fold change [4]	log2 fold change [5]	log2 fold change [6]	log2 fold change (saracatinib)	log2 fold change (sotrastaurin)	log2 fold change (Tubastatin A)	log2 fold change [7]	log2 fold change (defactinib)	log2 fold change (rucaparib)	log2 fold change [8]	log2 fold change (encorafenib)	log2 fold change [9]	log2 fold change (rosiglitazone)	log2 fold change (alvocidib)	log2 fold change [10]
LMNB1 (UniProt P20700)	inactive: -0.045	active: -0.308	inactive: 0.023	inactive: 0.037	inactive: 0.115	inactive: 0.034	inactive: -0.034	inactive: 0.026	inactive: 0.029	inactive: -0.11	inactive: -0.016	inactive: 0.007	inactive: -0.166	inactive: -0.035	inactive: -0.095	inactive: 0.016	inactive: 0.032			
LNPK (UniProt Q9C0E8)	inactive: 0.02	inactive: 0.024	inactive: -0.038	inactive: -0.007	inactive: 0.018	inactive: -0.042	inactive: 0.012	inactive: 0.059	inactive: 0.085	inactive: 0.047	inactive: -0.034	inactive: 0.012	inactive: 0.009	inactive: -0.015	inactive: -0.045	inactive: -0.013	inactive: 0.039			
LIAS (UniProt O43766)	inactive: 0.051	inactive: 0.055	inactive: -0.021	inactive: -0.011	inactive: -0.044	inactive: -0.043	inactive: -0.052	inactive: 0.057	inactive: 0.049	active: 0.271	inactive: -0.056	inactive: 0.029	inactive: 0.018	inactive: 0.017	inactive: -0.027	inactive: 0	inactive: 0.022			
LEPROTL1 isoform 2 (UniProt O95214)	inactive: -0.086	inactive: -0.151	inactive: -0.234			inactive: 0.164	inactive: -0.031		inactive: 0.004		inactive: -0.261		inactive: -0.068	inactive: -0.216	inactive: 0.028	inactive: 0.163	inactive: 0.104	inactive: -0.201	inactive: -0.071	
LARP1 (UniProt Q6PKG0)	inactive: 0.098	inactive: 0.071	inactive: 0.047	inactive: -0.034	inactive: 0.016	inactive: -0.054	inactive: 0.131	inactive: 0.025	inactive: -0.023	inactive: -0.029	inactive: 0.059	inactive: 0.05	inactive: 0.089	inactive: 0.11	inactive: 0.004	inactive: 0.039	inactive: 0.01			
LPCAT2 (UniProt Q7L5N7)	inactive: -0.026	inactive: -0.173		inactive: -0.131	inactive: -0.067	inactive: 0.027	inactive: 0.053	inactive: 0.068	inactive: -0.036	inactive: 0.031	inactive: 0.018	inactive: 0.08	inactive: -0.034	inactive: -0.062	inactive: 0.075	inactive: 0.076	inactive: 0.112	inactive: 0.019	inactive: 0.03	inactive: 0.077
LRRC14 (UniProt Q15048)	inactive: -0.004	inactive: -0.219	inactive: 0.251			inactive: 0.121	inactive: 0.013		inactive: -0.02		inactive: 0.089	inactive: 0.031	inactive: 0.006	inactive: 0.092	inactive: -0.003	inactive: -0.049	inactive: 0.086	inactive: -0.007		inactive: -0.187
LBR (UniProt Q14739)	inactive: -0.036	active: 0.552	inactive: 0.051	inactive: 0.022	inactive: -0.071	inactive: 0.056	inactive: -0.026	inactive: 0.099	inactive: 0.008	inactive: 0.036	inactive: -0.008	inactive: -0.02	inactive: -0.022	inactive: 0.164	inactive: 0.116	inactive: 0.058	inactive: -0.089			
LEO1 (UniProt Q8WVC0)	inactive: -0.021	active: -0.402	inactive: -0.013	inactive: -0.001	inactive: -0.051	inactive: 0.121	inactive: -0.033	inactive: -0.048	inactive: -0.047	inactive: -0.085	inactive: 0.061	inactive: -0.039	inactive: -0.211	inactive: -0.151	inactive: -0.055	inactive: -0.033	inactive: -0.082			
LAMP2 isoform 2 (UniProt P13473)	inactive: -0.137	inactive: -0.081	inactive: -0.078	inactive: -0.016	inactive: -0.01	inactive: 0.012	inactive: -0.112	active: -0.485	inactive: 0.24		inactive: 0.021	inactive: 0.027	inactive: 0.078	inactive: 0.024	inactive: -0.192	inactive: 0.043	inactive: -0.017			
LONP2 (UniProt Q86WA8)	inactive: 0.141	inactive: 0.16	inactive: 0.063	inactive: 0.336	inactive: 0.034	inactive: -0.106	inactive: 0.054	inactive: 0.17	inactive: 0.006	inactive: 0.003	inactive: 0.135	inactive: 0	inactive: -0.12	inactive: 0.067	inactive: -0.079	inactive: 0.13	inactive: 0.007			
LARP4B (UniProt Q92615)	inactive: 0.025	inactive: -0.15	inactive: 0.061	inactive: -0.037	inactive: 0.073	inactive: 0.034	inactive: 0.096	inactive: -0.218	inactive: -0.009	inactive: -0.083	inactive: -0.033	inactive: -0.025	inactive: -0.037	inactive: 0.273	inactive: 0.02	inactive: 0.094	inactive: 0.032			
LNPEP (UniProt Q9UIQ6)	inactive: 0.004	inactive: -0.182	inactive: -0.016	inactive: 0.014	inactive: -0.02	inactive: 0.012	inactive: -0.025	inactive: 0.024	inactive: 0.048	inactive: 0.037	inactive: -0.001	inactive: -0.01	inactive: -0.054	inactive: -0.014	inactive: -0.02	inactive: -0.008	inactive: 0.012			
LPCAT3 (UniProt Q6P1A2)	inactive: 0.146	inactive: -0.026	inactive: -0.008	inactive: -0.005	inactive: -0.063	inactive: 0.087	inactive: -0.093	inactive: -0.202	inactive: -0.048	inactive: -0.14	inactive: 0	inactive: 0.093	inactive: 0	inactive: -0.074	inactive: 0.138	inactive: -0.026	inactive: -0.021			
LRPPRC (UniProt P42704)	inactive: -0.413	inactive: -0.801	inactive: 0.161	inactive: 0.277	inactive: 0.01	inactive: 0.334	inactive: 0.177	inactive: -0.323	inactive: -0.281	inactive: -0.874	inactive: 0.316	inactive: -0.241	inactive: -0.346	inactive: 0.395	inactive: -0.175	inactive: 0.116	inactive: -0.103			
LINC00526 (UniProt Q96FQ7)	inactive: -0.1											inactive: 0.09		inactive: 0.196		inactive: -0.019				inactive: 0.095
LCP2 (UniProt Q13094)	inactive: -0.119			inactive: 0.114	inactive: 0.031	inactive: 0.038	inactive: -0.075	inactive: -0.198	inactive: 0.123	inactive: -0.086	inactive: 0.063	inactive: 0.025	inactive: -0.105	inactive: 0.071	inactive: 0.153	inactive: 0.043	inactive: 0.035	inactive: -0.008		inactive: -0.066
LRP10 (UniProt Q7Z4F1)		inactive: -0.056	inactive: 0.05	inactive: 0.075			inactive: 0.018		inactive: -0.13	inactive: -0.13					inactive: -0.401			inactive: 0.029	inactive: -0.207	

Individual results from the results shown.
log2 fold change (defactinib), LARP1 (UniProt Q6PKG0) is entered as inactive: 0.089
log2 fold change (epoxomicin), LNPK (UniProt Q9C0E8) is entered as inactive: -0.007
